The target in the assay is GFP-tagged human ACE2 intracellular domain (ICD) (human) (UniProt Q9BYF1). In words: co-IP; lysates of FBD-102b cells transfected with GFP-tagged ACE2 intracellular domain, immunoprecipitated with an anti-GFP antibody on protein G resin in the presence of 1 μM GTP or GDP, immunoblotted for the endogenous partner; lysis buffer 50 mM HEPES-NaOH pH 7.5, 150 mM NaCl, 20 mM MgCl2, 0.5% NP-40.

Chains of the proteins cited; added tags and fusions are not shown. Residues count along the entry.
UniProt Q9BYF1, residues 764-805: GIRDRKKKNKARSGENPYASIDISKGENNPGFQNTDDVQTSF
UniProt Q8BTI9: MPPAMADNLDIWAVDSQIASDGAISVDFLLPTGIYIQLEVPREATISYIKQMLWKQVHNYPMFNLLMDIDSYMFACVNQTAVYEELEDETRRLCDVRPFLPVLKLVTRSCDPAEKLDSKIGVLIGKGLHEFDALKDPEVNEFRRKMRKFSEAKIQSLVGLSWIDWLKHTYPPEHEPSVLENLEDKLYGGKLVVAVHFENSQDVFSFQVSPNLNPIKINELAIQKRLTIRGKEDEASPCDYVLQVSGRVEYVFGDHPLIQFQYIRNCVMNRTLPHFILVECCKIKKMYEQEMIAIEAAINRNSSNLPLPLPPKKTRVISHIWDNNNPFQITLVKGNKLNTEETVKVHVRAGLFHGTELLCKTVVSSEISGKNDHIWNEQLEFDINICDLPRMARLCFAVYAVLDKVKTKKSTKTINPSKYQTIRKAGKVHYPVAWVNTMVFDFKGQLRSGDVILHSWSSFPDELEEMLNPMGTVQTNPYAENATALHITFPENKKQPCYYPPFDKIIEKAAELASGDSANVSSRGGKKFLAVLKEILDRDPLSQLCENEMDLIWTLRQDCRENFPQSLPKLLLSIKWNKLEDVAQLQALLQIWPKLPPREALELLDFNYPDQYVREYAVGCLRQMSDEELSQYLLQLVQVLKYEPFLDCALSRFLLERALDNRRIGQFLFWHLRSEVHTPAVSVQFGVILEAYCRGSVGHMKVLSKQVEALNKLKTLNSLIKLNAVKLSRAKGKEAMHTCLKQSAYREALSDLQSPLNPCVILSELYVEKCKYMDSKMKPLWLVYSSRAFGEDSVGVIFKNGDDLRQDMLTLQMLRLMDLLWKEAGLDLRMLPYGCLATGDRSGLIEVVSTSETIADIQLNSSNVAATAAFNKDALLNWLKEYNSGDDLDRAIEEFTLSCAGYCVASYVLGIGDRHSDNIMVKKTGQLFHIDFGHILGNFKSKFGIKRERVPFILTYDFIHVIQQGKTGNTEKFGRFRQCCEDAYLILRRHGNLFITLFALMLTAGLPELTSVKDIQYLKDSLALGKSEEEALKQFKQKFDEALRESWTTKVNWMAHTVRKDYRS
UniProt P42337: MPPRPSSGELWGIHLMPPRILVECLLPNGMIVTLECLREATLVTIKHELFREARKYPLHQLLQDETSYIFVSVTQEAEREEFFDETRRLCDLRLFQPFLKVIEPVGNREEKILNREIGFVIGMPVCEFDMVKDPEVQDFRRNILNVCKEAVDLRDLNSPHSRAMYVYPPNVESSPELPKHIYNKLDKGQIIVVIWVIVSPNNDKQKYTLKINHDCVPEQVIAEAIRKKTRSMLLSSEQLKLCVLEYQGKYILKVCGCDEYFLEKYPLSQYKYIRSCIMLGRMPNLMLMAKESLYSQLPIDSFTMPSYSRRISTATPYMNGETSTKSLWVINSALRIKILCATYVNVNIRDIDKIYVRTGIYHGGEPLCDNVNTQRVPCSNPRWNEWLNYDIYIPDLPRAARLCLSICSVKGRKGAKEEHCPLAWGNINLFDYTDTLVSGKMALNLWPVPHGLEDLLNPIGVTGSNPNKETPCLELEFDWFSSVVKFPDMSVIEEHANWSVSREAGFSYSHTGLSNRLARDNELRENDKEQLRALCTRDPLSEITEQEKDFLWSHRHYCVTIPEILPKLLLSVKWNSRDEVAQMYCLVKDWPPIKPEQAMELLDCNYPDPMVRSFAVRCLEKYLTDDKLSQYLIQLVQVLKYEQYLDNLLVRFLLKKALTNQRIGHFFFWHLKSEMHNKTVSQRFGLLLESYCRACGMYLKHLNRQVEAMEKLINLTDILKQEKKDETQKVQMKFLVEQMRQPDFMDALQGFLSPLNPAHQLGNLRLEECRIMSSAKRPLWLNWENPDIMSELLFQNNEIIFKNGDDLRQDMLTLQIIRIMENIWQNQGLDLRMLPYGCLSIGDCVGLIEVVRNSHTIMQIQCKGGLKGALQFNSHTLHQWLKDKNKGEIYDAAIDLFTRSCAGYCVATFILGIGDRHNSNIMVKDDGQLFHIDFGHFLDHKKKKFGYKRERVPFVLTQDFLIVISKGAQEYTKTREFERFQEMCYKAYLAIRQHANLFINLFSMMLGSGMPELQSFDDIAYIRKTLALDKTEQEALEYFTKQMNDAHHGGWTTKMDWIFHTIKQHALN

These are yes or no findings as the source states them, for the method shown. Binding seen in cells or lysates may run through a third protein. Some binding calls cover weakened binding; strength is not graded here.

Regarding “Phosphoinositide 3-kinase β (PI 3-kinase p110β), endogenous in FBD-102b cells (from UniProt Q8BTI9 1-1064)”, the binding entry is reported as “binds”.
The result for “Phosphoinositide 3-kinase α (PI 3-kinase p110α), endogenous in FBD-102b cells (from UniProt P42337 1-1068)” reads “binds”.
